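Malaria parasite (P. falciparum) lines kept in red blood cells; parasite DNA is measured by SYBR Green fluorescence after lysis, 72 h after compound addition. Each compound was titrated across a series from about 0.000037 to 29 µM. The number is the fitted AC50, the concentration giving a half-maximal change in signal; a lower value means higher potency, whether the curve shows a decrease or an increase. Calls follow the curve class and fit quality: every row here is inconclusive, covering signal-raising curves and weak, poorly fitted, partial or highest-dose-only inhibition curves.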

Values are in nM. Every entry below has the call inconclusive. These entries are mostly ones the record files as inconclusive; other results of the assay are not listed here. A potency from a partial, single-point or poor curve is only a rough figure.

For Cn1c(O)c(N=NC(N)=S)c2ccccc21 [ECU] the result was Potency 12589 nM (inhibitor, partial curve). Cn1c(O)c(N=NC(N)=S)c2ccccc21 [DIV30] read Potency 6012 nM (inhibitor, partial curve, poor fit). For Cn1c(O)c(N=NC(N)=S)c2ccccc21 [W2] the result was Potency 16944 nM (inhibitor, single point). Result for Cn1c(O)c(N=NC(N)=S)c2ccccc21 [ATS189] was Potency 12589 nM (inhibitor, single point). Result for Cn1c(O)c(N=NC(N)=S)c2ccccc21 [SC27B] was Potency 12589 nM (inhibitor, single point). Result for Oc1c(Cl)cc(Cl)c(Cl)c1Cc1c(O)c(Cl)cc(Cl)c1Cl [CP262] was Potency 3793 nM (inhibitor, partial curve, poor fit).

With Oc1c(Cl)cc(Cl)c(Cl)c1Cc1c(O)c(Cl)cc(Cl)c1Cl [ATS189] the assay gave Potency 10000 nM (inhibitor, single point). Oc1c(Cl)cc(Cl)c(Cl)c1Cc1c(O)c(Cl)cc(Cl)c1Cl [PAD] read Potency 11220 nM (inhibitor, single point). Result for Oc1c(Cl)cc(Cl)c(Cl)c1Cc1c(O)c(Cl)cc(Cl)c1Cl [PC26] was Potency 19011 nM (inhibitor, single point). For Oc1c(Cl)cc(Cl)c(Cl)c1Cc1c(O)c(Cl)cc(Cl)c1Cl [CP185] the result was Potency 10000 nM (inhibitor, single point). For Oc1c(Cl)cc(Cl)c(Cl)c1Cc1c(O)c(Cl)cc(Cl)c1Cl [CP286] the result was Potency 11220 nM (inhibitor, single point). For Oc1c(Cl)cc(Cl)c(Cl)c1Cc1c(O)c(Cl)cc(Cl)c1Cl [HB3] the result was Potency 17782 nM (inhibitor, single point).

Oc1c(Cl)cc(Cl)c(Cl)c1Cc1c(O)c(Cl)cc(Cl)c1Cl [AA1029] gave Potency 11220 nM (inhibitor, single point). Oc1c(Cl)cc(Cl)c(Cl)c1Cc1c(O)c(Cl)cc(Cl)c1Cl [CP266] gave Potency 19011 nM (inhibitor, single point). With Oc1c(Cl)cc(Cl)c(Cl)c1Cc1c(O)c(Cl)cc(Cl)c1Cl [CP192] the assay gave Potency 11995 nM (inhibitor, single point). Oc1c(Cl)cc(Cl)c(Cl)c1Cc1c(O)c(Cl)cc(Cl)c1Cl [CP250] gave Potency 14125 nM (inhibitor, single point). Result for Oc1c(Cl)cc(Cl)c(Cl)c1Cc1c(O)c(Cl)cc(Cl)c1Cl [CP305] was Potency 15101 nM (inhibitor, single point). For Oc1c(Cl)cc(Cl)c(Cl)c1Cc1c(O)c(Cl)cc(Cl)c1Cl [C2A] the result was Potency 11220 nM (inhibitor, single point).

Oc1c(Cl)cc(Cl)c(Cl)c1Cc1c(O)c(Cl)cc(Cl)c1Cl [CP269] gave Potency 15101 nM (inhibitor, single point). For Oc1c(Cl)cc(Cl)c(Cl)c1Cc1c(O)c(Cl)cc(Cl)c1Cl [CP335] the result was Potency 16944 nM (inhibitor, single point). Oc1c(Cl)cc(Cl)c(Cl)c1Cc1c(O)c(Cl)cc(Cl)c1Cl [3D7] gave Potency 14125 nM (inhibitor, single point). Oc1c(Cl)cc(Cl)c(Cl)c1Cc1c(O)c(Cl)cc(Cl)c1Cl [DFO2036] read Potency 10000 nM (inhibitor, single point). Oc1c(Cl)cc(Cl)c(Cl)c1Cc1c(O)c(Cl)cc(Cl)c1Cl [CP260] gave Potency 11220 nM (inhibitor, single point). Oc1c(Cl)cc(Cl)c(Cl)c1Cc1c(O)c(Cl)cc(Cl)c1Cl [ATS95] gave Potency 11220 nM (inhibitor, single point).

With Oc1c(Cl)cc(Cl)c(Cl)c1Cc1c(O)c(Cl)cc(Cl)c1Cl [JCK] the assay gave Potency 10000 nM (inhibitor, single point). For Oc1c(Cl)cc(Cl)c(Cl)c1Cc1c(O)c(Cl)cc(Cl)c1Cl [P94_40] the result was Potency 11220 nM (inhibitor, single point).

2 of the entries, repeated:

compound,condition,Potency (nM),remark
Oc1c(Cl)cc(Cl)c(Cl)c1Cc1c(O)c(Cl)cc(Cl)c1Cl,PC26,19011,"inhibitor, single point"
Cn1c(O)c(N=NC(N)=S)c2ccccc21,ECU,12589,"inhibitor, partial curve"

From PubChem BioAssay record AID504749 (NCATS, 2011).